Experimental data reported in publication doi:10.1101/2020.11.16.385906.
Read-outs that look alike come from different tables or passages of the source. No constants are given. Whether binding was seen depends on the method and setting. Binding can be weak; no strength is given.

Sequences of proteins named here, by UniProt entry; tags and fusion partners are left off. A change or cut given only in a name is not applied to a line headed by its entry.
UniProt Q9BL47: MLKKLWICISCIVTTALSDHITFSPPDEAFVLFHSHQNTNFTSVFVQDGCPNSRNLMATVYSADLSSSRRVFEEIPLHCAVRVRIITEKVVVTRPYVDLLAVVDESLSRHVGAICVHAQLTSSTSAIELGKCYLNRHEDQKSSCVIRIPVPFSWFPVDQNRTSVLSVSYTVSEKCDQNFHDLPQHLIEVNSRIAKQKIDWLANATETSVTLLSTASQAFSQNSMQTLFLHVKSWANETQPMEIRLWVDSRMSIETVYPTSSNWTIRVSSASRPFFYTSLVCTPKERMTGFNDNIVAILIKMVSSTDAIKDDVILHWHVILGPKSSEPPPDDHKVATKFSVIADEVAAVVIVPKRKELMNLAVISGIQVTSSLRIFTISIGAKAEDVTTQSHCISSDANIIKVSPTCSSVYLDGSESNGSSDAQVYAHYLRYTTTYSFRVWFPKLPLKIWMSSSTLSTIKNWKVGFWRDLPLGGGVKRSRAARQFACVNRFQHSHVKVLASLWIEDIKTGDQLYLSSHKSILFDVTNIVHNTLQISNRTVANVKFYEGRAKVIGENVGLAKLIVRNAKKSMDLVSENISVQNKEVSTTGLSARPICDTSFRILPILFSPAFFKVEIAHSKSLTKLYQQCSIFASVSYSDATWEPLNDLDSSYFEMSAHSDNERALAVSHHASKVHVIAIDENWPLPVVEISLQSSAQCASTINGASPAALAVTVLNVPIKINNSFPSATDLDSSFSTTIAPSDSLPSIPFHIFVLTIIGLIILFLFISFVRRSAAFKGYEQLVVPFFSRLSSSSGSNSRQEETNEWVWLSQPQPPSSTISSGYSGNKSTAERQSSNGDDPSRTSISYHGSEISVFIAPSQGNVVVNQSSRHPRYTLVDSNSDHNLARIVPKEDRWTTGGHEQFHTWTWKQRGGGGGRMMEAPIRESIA

Legend:
[1] = molecular target: C-terminus of C. elegans TMEM-132 (yeast two-hybrid bait) (C. elegans) (UniProt Q9BL47); assay: two-hybrid
[2] = molecular target: C-terminus of C. elegans TMEM-132 (yeast two-hybrid bait) (C. elegans) (UniProt Q9BL47); assay: two-hybrid; remark: listed apart in the source

binding [1]	binding [2]	Molecule
binds		GEX-3 C-terminal 60 a.a. fragment (yeast two-hybrid) (from UniProt P55163) (domain or fragment)
binds		GEX-3 C-terminal 600 a.a. fragment (yeast two-hybrid) (from UniProt P55163) (domain or fragment)
	binds	GEX-3 full length (yeast two-hybrid) (protein, UniProt P55163 1-1141) MAYKDARQVKIAEKLVILNDRAAGMMTRIYNIKKSSGDSKVKPQFLSDKKMEGAIKHIVRKFPVVDCRSNSSTFEYVQEKSTEITKSLSLYYYTFADILDLKDHIMQVLTTMESCQCQLDVTLNYDLTTSYLNLVVHLVTMMILLSRIEDRKAVLGLFNAAYDLQHGQSEASFPRLGQMILDYENPLKKLHEDLGPLNRLIYSALSSVTHTYQRRNKTADSWRTSNVFSLTAAPAQILYAAQTETIACEYLSLDVIDRWIVFCGTVCHSTLLNDDNIRHMWQLALQMNLCLRVFRDETFIVHQEIQAFLESSKEKSKRLQDVKDAFNHASVTAVAVHADRRRFLRSSLRELSLLLRDQPGLLGPKILYVWMALGAGRDEVIWLLRHQVEVPAISKKGSRMVEELVDRQLPELLFYMLELRDLVTKYYAVIQRYYLQYVSSYDSIVVSEEINQANGLTQEEAVLLTDFANEIGNINSDTDLRALRLDWFRFQAWTSAARSHFQLSRHKKLAIYMNTSVFHLKMIDLQDEMLRETSDLSLYCFYPKLAEKHWLNCLQLPAQARYVLSFARLAAHFTSALHDMCPEEKAFITEKALAQCNSVIEETCKQLSYILEKVAEHEFGLAYQMTPSAVAVRVVAQVVQQKGSGKAAAAAAAAARDYFIAGEESYRVDRQALTMPDKLQTTLLEISAALGAHRQIYVADHTFAPRTYLAQSLETKFVELLHGMFWEGQPHASNPKRPSEMLLALQAYMTVLQNLDTAISVDISNTMQTTLLQQTQLVDSKNKDTIAALYTKWYLEVLLRRASSGHMVWSEHLRTMLSSGQEQLSFMPDHYSDPQELRALVQIIGPYGVKLMTERLIWHVASQIMEMSKIVATYKDALQIARSNFDNAEKMKDVLNLLSVEPKDKKTPNATCAADAILQRTIIIGQICLFRDALHDALRHIVESKLPFLQASFDMLYHNLDDVDKVKIGEMSAAMGVTGPVDMSLVNAVRAQNPNIHPQEHYVNSCLLMVAVAICIPRIGMSDLSSYKPSIQASLNNSHCVPMAINTIGSALFHLHEQNDIQSRMKEFLALASSGILRTIHERDNSRQISDDVLRSHTTLYIILEQMVRKNRWLSMDVLETCFPYNLVRTAYQQCYEADAQ
